Some of the results follow.
Columns and labels:
Test in all cases: log2 fold change, soluble protein after heating vs DMSO (PISA); higher = thermal stabilisation; K562 cells, 10 uM, 30 min; active = over 0.2 and 3.5 SD of the protein, either way, in both replicates (recomputed)
[1] = compound: C1=CC=C(C=C1)[C@H](COC2=CC3=C(C=C2)NC(=O)N3)NC(=O)C4=CC=CN(C4=O)CC5=CC(=C(C=C5)F)F
In short: (§1)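 K562 cells at 2×10^6 cells/mL were exposed to 10 μM compound for 30 min, then aliquots were heated for 3 min across 48°C-58°C, pooled, and extracted in PBS containing 0.5% NP-40 at 4°C. The supernatant after 21,000xg for 90 min was taken as soluble protein and measured by TMTpro 16plex LC-MS/MS with channel sums equalised. Thermal stability is reported relative to control samples, with values from duplicates. Fold changes are given on a log2 scale.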

By UniProt entry, the sequences of proteins in these tests, tags left out. Where a name states a change or a piece, a line headed by the entry shows the natural chain unless it says otherwise.
UniProt Q9NX18: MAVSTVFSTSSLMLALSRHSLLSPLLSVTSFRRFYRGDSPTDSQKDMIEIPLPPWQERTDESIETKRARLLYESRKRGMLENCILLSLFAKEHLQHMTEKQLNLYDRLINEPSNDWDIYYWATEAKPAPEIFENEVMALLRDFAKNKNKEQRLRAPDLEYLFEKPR
UniProt Q0VDG4: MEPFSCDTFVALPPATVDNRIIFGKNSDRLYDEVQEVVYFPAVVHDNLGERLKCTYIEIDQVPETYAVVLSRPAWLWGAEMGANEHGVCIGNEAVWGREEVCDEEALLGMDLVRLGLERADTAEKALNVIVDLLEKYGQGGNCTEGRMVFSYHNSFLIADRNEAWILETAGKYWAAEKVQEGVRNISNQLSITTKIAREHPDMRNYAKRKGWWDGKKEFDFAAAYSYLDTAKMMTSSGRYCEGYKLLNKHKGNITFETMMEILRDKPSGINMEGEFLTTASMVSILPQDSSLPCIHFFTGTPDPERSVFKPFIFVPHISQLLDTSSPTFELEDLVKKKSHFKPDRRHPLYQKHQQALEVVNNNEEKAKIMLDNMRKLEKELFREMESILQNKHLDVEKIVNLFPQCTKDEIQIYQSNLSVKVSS
UniProt Q96T51: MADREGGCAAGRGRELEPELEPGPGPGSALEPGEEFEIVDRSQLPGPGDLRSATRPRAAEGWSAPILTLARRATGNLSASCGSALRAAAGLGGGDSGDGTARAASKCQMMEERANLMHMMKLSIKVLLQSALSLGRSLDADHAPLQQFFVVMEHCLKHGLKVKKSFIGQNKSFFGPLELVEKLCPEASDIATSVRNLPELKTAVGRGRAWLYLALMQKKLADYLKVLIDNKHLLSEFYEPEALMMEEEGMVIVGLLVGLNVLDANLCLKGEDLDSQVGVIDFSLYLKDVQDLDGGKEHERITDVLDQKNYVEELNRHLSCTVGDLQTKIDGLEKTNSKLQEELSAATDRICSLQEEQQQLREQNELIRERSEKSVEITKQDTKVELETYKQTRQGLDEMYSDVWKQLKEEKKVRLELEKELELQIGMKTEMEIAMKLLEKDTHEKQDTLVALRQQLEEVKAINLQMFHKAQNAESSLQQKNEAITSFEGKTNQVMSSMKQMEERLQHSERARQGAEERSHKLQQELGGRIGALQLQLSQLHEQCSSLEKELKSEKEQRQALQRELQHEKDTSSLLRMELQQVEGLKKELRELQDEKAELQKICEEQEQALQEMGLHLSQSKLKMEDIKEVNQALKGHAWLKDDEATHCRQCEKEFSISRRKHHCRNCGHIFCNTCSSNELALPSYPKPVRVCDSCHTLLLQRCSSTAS
UniProt P25815: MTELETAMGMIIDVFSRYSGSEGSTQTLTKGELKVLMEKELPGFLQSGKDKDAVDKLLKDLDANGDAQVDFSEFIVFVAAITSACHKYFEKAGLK
UniProt Q8N488: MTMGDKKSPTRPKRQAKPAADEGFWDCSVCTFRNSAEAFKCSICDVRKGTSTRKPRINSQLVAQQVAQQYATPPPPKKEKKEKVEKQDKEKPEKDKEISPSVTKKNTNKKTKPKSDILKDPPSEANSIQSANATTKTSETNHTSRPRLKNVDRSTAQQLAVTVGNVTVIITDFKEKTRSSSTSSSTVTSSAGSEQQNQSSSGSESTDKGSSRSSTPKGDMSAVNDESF
UniProt O00560: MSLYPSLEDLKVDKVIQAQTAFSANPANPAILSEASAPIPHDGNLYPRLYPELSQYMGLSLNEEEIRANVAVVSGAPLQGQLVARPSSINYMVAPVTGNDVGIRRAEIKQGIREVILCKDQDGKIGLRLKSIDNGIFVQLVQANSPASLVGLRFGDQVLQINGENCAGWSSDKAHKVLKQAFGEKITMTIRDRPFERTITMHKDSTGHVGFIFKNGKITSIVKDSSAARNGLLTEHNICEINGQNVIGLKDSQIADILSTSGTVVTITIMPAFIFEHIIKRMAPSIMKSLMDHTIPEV
UniProt Q14108: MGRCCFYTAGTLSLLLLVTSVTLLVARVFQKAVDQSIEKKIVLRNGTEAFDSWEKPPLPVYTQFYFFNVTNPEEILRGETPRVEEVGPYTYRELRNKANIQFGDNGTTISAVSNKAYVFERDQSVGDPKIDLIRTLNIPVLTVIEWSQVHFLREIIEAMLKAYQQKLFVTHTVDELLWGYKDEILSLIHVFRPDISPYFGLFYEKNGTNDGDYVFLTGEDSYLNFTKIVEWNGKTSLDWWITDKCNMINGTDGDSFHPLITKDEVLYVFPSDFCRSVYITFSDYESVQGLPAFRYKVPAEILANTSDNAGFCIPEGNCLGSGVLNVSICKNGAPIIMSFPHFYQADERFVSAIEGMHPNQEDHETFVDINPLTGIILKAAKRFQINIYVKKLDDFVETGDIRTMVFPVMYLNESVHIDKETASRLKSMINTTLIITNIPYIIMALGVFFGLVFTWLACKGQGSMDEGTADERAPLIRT
UniProt Q96ER3: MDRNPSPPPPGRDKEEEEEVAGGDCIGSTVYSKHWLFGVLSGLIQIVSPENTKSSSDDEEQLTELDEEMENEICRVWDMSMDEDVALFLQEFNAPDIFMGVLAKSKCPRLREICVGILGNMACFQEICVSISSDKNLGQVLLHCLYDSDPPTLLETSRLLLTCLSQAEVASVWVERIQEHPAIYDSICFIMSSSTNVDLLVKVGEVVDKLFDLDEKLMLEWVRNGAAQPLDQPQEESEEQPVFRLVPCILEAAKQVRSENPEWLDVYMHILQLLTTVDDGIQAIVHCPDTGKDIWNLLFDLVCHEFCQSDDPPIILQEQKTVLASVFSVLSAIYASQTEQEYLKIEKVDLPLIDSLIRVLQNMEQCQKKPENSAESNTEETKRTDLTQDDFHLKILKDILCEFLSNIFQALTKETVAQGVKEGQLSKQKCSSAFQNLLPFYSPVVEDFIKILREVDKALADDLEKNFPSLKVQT
UniProt Q96GA7: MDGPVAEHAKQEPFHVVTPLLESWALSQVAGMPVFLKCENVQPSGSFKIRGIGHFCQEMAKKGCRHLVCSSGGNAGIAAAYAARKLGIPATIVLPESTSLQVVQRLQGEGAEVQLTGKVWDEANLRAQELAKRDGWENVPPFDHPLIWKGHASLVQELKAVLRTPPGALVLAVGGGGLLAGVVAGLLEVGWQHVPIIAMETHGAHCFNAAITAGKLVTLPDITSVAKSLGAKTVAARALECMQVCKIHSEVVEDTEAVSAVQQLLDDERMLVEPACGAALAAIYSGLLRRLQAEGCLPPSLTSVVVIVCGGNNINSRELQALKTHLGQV
UniProt O43819: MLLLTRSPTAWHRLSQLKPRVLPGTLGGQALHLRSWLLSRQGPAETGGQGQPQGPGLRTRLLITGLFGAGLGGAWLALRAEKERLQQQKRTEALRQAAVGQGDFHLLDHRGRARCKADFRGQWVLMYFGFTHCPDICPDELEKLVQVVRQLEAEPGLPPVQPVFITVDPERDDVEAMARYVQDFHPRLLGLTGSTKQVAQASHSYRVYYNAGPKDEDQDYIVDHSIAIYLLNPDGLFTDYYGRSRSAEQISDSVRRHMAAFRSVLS
UniProt Q8WTV0: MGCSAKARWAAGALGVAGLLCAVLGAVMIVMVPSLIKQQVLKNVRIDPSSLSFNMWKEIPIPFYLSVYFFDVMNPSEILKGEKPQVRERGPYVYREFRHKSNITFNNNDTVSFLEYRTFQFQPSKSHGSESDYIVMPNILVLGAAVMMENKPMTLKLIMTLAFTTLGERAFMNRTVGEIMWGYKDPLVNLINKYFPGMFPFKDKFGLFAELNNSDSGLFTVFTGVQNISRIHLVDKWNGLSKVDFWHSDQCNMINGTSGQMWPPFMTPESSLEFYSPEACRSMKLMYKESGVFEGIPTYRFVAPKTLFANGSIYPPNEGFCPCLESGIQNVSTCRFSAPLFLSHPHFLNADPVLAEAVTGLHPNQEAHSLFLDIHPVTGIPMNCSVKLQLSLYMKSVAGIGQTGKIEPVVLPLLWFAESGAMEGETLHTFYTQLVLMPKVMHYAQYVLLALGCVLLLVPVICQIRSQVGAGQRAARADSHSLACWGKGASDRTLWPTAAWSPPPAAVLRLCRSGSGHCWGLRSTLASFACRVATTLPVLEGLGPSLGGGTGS
UniProt O75396: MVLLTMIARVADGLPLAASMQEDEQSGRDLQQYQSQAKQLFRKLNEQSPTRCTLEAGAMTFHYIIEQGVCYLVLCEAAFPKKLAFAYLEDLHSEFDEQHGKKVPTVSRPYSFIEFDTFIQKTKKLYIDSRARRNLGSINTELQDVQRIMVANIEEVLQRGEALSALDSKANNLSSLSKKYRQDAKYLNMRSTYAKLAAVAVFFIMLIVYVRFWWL
UniProt Q8WVM8, whole entry, looked up: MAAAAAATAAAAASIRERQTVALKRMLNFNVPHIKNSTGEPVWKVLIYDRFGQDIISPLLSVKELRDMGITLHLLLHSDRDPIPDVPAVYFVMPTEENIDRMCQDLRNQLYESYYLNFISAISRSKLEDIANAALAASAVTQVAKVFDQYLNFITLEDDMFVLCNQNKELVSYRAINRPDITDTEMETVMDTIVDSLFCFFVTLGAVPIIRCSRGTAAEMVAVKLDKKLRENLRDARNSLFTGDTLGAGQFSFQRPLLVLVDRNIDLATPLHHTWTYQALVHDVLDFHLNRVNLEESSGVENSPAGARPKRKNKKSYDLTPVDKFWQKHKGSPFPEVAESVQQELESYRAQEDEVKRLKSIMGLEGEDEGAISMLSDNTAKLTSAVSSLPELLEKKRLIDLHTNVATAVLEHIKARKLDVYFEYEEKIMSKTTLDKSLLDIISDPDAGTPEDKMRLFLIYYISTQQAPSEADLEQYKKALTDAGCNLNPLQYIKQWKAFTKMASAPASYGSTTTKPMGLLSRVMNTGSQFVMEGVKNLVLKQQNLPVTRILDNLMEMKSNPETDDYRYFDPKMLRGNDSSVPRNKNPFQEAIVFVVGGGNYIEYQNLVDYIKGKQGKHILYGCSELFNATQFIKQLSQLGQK
UniProt Q9UPN6: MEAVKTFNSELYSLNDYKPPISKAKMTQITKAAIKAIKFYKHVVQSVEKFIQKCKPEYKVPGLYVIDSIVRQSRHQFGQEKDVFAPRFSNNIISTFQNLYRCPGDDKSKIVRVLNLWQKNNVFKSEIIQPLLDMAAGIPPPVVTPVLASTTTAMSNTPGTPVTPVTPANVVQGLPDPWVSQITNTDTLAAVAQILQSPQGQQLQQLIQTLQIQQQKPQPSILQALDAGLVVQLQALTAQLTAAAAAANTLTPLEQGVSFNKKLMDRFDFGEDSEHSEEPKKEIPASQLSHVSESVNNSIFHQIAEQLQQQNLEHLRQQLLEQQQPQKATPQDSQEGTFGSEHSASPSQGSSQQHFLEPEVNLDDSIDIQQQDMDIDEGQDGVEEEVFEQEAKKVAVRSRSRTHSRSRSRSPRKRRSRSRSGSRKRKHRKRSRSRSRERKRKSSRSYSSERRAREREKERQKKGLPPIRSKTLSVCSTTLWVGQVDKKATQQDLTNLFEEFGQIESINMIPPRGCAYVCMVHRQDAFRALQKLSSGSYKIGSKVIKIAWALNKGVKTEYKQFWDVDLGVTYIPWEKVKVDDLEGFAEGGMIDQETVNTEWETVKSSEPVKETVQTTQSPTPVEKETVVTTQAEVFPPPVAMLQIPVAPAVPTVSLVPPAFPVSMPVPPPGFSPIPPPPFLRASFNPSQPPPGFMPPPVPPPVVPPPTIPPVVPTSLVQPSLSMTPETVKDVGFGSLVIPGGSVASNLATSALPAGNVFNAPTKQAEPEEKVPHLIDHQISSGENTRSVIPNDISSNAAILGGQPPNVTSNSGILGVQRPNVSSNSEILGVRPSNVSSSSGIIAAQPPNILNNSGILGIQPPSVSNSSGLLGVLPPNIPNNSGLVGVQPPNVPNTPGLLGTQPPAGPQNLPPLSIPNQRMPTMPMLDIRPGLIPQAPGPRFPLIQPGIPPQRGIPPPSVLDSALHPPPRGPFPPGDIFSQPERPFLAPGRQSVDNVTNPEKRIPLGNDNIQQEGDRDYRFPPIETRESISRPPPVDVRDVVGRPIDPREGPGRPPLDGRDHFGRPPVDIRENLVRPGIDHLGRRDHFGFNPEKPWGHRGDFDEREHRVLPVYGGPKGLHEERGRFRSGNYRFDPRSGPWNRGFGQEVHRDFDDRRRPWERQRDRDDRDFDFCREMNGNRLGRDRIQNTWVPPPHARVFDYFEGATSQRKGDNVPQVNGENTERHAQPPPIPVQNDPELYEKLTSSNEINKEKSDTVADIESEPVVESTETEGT
UniProt O00442: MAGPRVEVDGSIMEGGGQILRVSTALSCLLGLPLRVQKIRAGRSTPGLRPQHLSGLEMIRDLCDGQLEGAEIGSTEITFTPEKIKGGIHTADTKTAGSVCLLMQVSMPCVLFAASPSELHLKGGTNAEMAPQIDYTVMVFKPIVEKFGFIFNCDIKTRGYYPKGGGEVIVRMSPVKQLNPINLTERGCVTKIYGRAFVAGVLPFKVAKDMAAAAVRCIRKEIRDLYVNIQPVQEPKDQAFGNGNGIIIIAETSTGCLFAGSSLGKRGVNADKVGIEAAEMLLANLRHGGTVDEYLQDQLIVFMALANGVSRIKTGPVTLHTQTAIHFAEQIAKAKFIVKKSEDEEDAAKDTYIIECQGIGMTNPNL

[2] = compound: CC1=C(SC2=C1C(=N[C@H](C3=NN=C(N32)C)CC(=O)N)C4=CC=C(C=C4)Cl)C
In short: as §1

[3] = compound: CC1=C2C(=CC=C1)N=C(N(C2=O)C3=CC=CC=C3C)CN4C=NC5=C(N=CN=C54)N
In short: as §1

[4] = compound: Cc1sc2c(c1C)C(c1ccc(Cl)cc1)=N[C@@H](CC(=O)OC(C)(C)C)c1nnc(C)n1-2
In short: as §1

[5] = compound: c1ccc([C@@H]2C[C@H]2NC2CCNCC2)cc1
In short: as §1

Measured: log2 fold change

SACS (UniProt Q9NZJ4)
inactive: [1] -0.02 | [2] 0.018 | [3] 0.034 | [4] 0.009 | [5] -0.09

SDHAF2 (UniProt Q9NX18)
inactive: [1] -0.02 | [2] 0.078 | [3] -0.013 | [4] -0.097 | [5] -0.096

RTN4 (UniProt Q9NQC3)
inactive: [1] 0.006 | [2] 0.025 | [3] 0.007 | [4] -0.015 | [5] 0.007

SCRN3 (UniProt Q0VDG4)
inactive: [1] -0.006 | [2] 0.034 | [3] 0.002 | [4] -0.028 | [5] 0.083

RUFY1 (UniProt Q96T51)
inactive: [1] -0.006 | [2] -0.029 | [3] 0.041 | [4] 0.002 | [5] -0.028

SACM1L (UniProt Q9NTJ5)
inactive: [1] 0 | [2] 0.048 | [3] 0.064 | [4] -0.044 | [5] 0.006

SARNP (UniProt P82979)
inactive: [1] 0.053 | [2] -0.022 | [3] -0.043 | [4] 0.052 | [5] 0.051

S100P (UniProt P25815)
inactive: [1] -0.073 | [2] 0.075 | [3] -0.01 | [4] -0.193 | [5] -0.113

SAFB2 (UniProt Q14151)
inactive: [1] 0.051 | [2] -0.087 | [3] -0.103 | [4] 0.045 | [5] 0

RSBN1L (UniProt Q6PCB5)
inactive: [1] 0.117 | [2] -0.285 | [3] -0.261 | [4] 0.17 | [5] 0.034

RYBP (UniProt Q8N488)
inactive: [1] -0.014 | [2] -0.057 | [3] 0.018 | [4] 0.09 | [5] 0.157

SDHAF3 (UniProt Q9NRP4)
inactive: [1] -0.037 | [2] 0.045 | [3] 0.006 | [4] -0.024 | [5] -0.031

SDCBP (UniProt O00560)
inactive: [1] 0.029 | [2] -0.031 | [3] -0.067 | [4] 0.04 | [5] -0.102

RUVBL2 (UniProt Q9Y230)
inactive: [1] 0.033 | [2] 0.025 | [3] -0.018 | [4] -0.019 | [5] 0.028

SCARB2 (UniProt Q14108)
inactive: [1] 0.028 | [2] 0.024 | [3] -0.012 | [4] -0.003 | [5] 0.035

SAAL1 (UniProt Q96ER3)
inactive: [1] -0.054 | [2] 0.03 | [3] 0.046 | [4] 0.109 | [5] -0.043

SCRN2 (UniProt Q96FV2)
inactive: [1] -0.124 | [2] -0.166 | [3] 0.027 | [4] 0.003 | [5] -0.069

SDSL (UniProt Q96GA7)
inactive: [1] 0.021 | [2] -0.039 | [3] -0.068 | [4] -0.016 | [5] 0.038

SEC11A isoform 3 (UniProt P67812)
inactive: [1] -0.044 | [2] 0.017 | [3] 0.007 | [4] -0.048 | [5] 0.003

RTN4 isoform 2 (UniProt Q9NQC3)
inactive: [1] -0.013 | [2] 0.053 | [3] 0.033 | [4] -0.055 | [5] 0.101

Reprinted at random: two records from the list.
SEC11A isoform 3 (UniProt P67812)
inactive: [1] -0.044 | [2] 0.017 | [3] 0.007 | [4] -0.048 | [5] 0.003

SAAL1 (UniProt Q96ER3)
inactive: [1] -0.054 | [2] 0.03 | [3] 0.046 | [4] 0.109 | [5] -0.043

Going on with the list.

SCO2 (UniProt O43819)
inactive: [1] -0.03 | [2] -0.108 | [3] -0.041 | [4] -0.098 | [5] 0.023

SCAF4 (UniProt O95104)
inactive: [1] -0.016 | [2] 0.109 | [3] 0.052 | [4] 0.059 | [5] -0.045

SCCPDH (UniProt Q8NBX0)
inactive: [1] -0.047 | [2] 0.087 | [3] 0.002 | [4] -0.003 | [5] -0.059

SCP2 (UniProt P22307)
inactive: [1] 0.013 | [2] 0.043 | [3] 0.029 | [4] -0.016 | [5] 0.001

SAP18 isoform 2 (UniProt O00422)
inactive: [1] 0.065 | [2] -0.156 | [3] -0.131 | [4] 0.015 | [5] 0.025

SCARB1 isoform 2 (UniProt Q8WTV0)
inactive: [1] 0.059 | [2] 0.033 | [3] 0.021 | [4] 0 | [5] 0.011

SEC22B (UniProt O75396)
inactive: [1] -0.001 | [2] 0.1 | [3] 0.078 | [4] -0.06 | [5] -0.046

RTN2 (UniProt O75298)
inactive: [1] -0.048 | [2] 0.121 | [3] -0.02 | [4] -0.057 | [5] 0.028

SCFD1 (UniProt Q8WVM8)
inactive: [1] -0.034 | [2] 0.009 | [3] 0.039 | [4] 0.025 | [5] -0.024

SCAF8 isoform 2 (UniProt Q9UPN6)
inactive: [1] -0.072 | [2] 0.099 | [3] 0.254 | [4] -0.016 | [5] 0.012

RTCA (UniProt O00442)
inactive: [1] -0.007 | [2] 0.034 | [3] 0.006 | [4] 0.004 | [5] -0.004
